Results from PubChem BioAssay AID529 (NMMLSC, 2006).
In all, about 24,000 compounds went through this assay and about 50 (0.2%) were called active. Inconclusive results, whose numbers are uncertain, are shown with a selection of clear calls.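 How the source made its calls: active means inhibition above 50%; inconclusive means compound itself fluorescent, judged against control cell fluorescence; inactive means the rest.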

Chains of the proteins cited; added tags and fusions are not shown.
UniProt P13612, whole entry, looked up: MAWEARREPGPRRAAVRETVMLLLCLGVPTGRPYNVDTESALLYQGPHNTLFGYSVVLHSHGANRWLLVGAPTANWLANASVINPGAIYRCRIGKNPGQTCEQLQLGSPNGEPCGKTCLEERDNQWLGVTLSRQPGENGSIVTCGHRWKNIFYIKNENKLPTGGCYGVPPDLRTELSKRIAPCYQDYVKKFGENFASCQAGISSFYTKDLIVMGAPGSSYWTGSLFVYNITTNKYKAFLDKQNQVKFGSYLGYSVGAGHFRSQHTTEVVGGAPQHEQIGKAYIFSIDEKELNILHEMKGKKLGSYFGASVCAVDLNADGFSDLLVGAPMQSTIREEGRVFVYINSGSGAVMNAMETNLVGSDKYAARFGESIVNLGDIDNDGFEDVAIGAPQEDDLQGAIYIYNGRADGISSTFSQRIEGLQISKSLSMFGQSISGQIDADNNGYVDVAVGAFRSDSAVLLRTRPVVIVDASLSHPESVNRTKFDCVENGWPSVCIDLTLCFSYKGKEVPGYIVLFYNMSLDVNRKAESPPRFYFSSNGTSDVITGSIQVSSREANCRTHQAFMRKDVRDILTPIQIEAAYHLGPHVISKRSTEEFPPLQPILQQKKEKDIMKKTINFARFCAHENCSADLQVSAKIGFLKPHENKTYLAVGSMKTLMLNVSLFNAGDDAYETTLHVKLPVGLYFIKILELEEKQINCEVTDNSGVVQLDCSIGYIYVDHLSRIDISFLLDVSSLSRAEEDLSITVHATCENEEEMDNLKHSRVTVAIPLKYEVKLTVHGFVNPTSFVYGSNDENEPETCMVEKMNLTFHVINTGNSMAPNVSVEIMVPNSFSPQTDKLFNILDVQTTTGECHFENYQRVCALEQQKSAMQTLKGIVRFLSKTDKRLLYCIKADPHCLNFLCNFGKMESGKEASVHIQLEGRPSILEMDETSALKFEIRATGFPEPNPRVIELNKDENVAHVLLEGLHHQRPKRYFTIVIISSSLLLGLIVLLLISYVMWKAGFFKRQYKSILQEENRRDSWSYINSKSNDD

Biological target: Integrin alpha-4 (Homo sapiens) (UniProt P13612)
Test: blockers of LDV-FITC ligand binding on VLA-4 – Jurkat cells, Mn2+ activated, primary screen (AID 529);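 on inhibition: 0% = Mn2+ stimulated cells lacking compound and 100% = ligand binding without Mn2+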
Conditions: LDV-FITC binding with Mn2+, flow cytometry; active compounds read high, screened at 10 µM (by protocol), 100% = Mn2+-driven binding gain fully reversed unless noted

Q: For `COC(=O)c1cc2occc2n1CC(=O)Nc1ccc(C)cc1C`, which inhibition is on record?
A: inconclusive

Q: `Cc1cccc(-n2nnc(C(=O)NCc3ccc4c(c3)OCO4)c2N)c1` was tested. Which inhibition did it give?
A: inconclusive

Q: Which inhibition does the source give for `CCOc1nc(-c2ccccc2)ccc1-c1noc(-c2ccc(OC)c(OC)c2)n1` here?
A: inactive: -19%

Q: Which inhibition does the source give for `CCOC(=O)C1=C(C)N=C2SC(CC)C(=O)N2C1c1cccc(F)c1` (stereo not drawn) here?
A: inconclusive

Q: How did the inhibition turn out when `O=c1cc(COn2nnc3ccc(C(F)(F)F)cc32)nc2sccn12` was run?
A: inconclusive

Q: For `CCOC(=O)c1cccc(NC(=O)CCc2c(C)nc3ncnn3c2C)c1`, which inhibition is on record?
A: inactive: 10% [active compounds read high, 100% = Mn2+-driven binding gain fully reversed, screened at 10 µM (by protocol)]

Q: For `CCOC(=O)c1[nH]c(C)c(C(=O)Nc2ccccc2F)c1C`, which inhibition is on record?
A: inconclusive

Q: `COc1ccc(NC(=O)CSc2nc3ccccc3c(=O)n2CCNC(C)=O)c(OC)c1` was tested. Which inhibition did it give?
A: inconclusive

Q: `Cc1ccc(-c2nc(CS(=O)CC(=O)NCCN3CCOCC3)c(C)o2)cc1` (stereo not drawn) was tested. Which inhibition did it give?
A: inconclusive

Q: For `CCOC(=O)N1CCN(C(=O)c2ccc3c(=O)n(CCC4=CCCCC4)c(=O)[nH]c3c2)CC1`, which inhibition is on record?
A: inconclusive

Q: With `CCOC(=O)N1CCC(NC(=O)CN2C(=O)COc3ccc(C(C)(C)C)cc32)CC1` as the molecule, how does the inhibition read?
A: inactive: 7% [active compounds read high, 100% = Mn2+-driven binding gain fully reversed, screened at 10 µM (by protocol)]

Q: With `O=C(NCCCN1CCOCC1)c1cc2c(=O)[nH]c3ccccc3c2s1` as the molecule, how does the inhibition read?
A: inconclusive

Q: For `Clc1ccc(C2=Nn3c(nnc3-c3cccnc3)SC2)s1`, which inhibition is on record?
A: inconclusive

Q: `O=C(NCC(F)(F)F)Nc1cccnc1` was tested. Which inhibition did it give?
A: inconclusive

Q: `CCOC(=O)N1CCN(S(=O)(=O)c2cc(Cl)c(OC)cc2Cl)CC1` was tested. Which inhibition did it give?
A: inconclusive

Q: `Cc1nc(S(=O)(=O)NC2CCCCC2)c(C#N)c(C)c1Cl` was tested. Which inhibition did it give?
A: inconclusive

Q: With `COc1ccc(S(=O)(=O)Cc2ccc(C(=O)N3CCN(c4cccc(C)c4)C(C)C3)o2)cc1` (stereo not drawn) as the molecule, how does the inhibition read?
A: inconclusive

Q: Which inhibition does the source give for `O=C(CCN1C(=O)C2C3C=CC(C3)C2C1=O)N1CC(=O)N(CCc2ccccc2)C(=O)C1` (stereo not drawn) here?
A: inconclusive

Q: With `COC(=O)C(NS(=O)(=O)c1ccc(NC(C)=O)cc1)C(C)C` (stereo not drawn) as the molecule, how does the inhibition read?
A: inconclusive

Q: For `N#Cc1c(NC(=O)COC(=O)C2CC3C=CC2C3)oc(-c2ccccc2)c1-c1ccccc1` (stereo not drawn), which inhibition is on record?
A: inconclusive

Q: Which inhibition does the source give for `CCOC(=O)N1CCN(C(=O)CSc2nnc(Cn3c(=O)sc4ccccc43)n2C)CC1` here?
A: inconclusive

Q: With `Cn1c(/C(C#N)=C(\O)c2ccc(S(=O)(=O)N3CCCCC3)cc2)nc2ccccc21` as the molecule, how does the inhibition read?
A: inconclusive

Q: How did the inhibition turn out when `COc1c(C)cc(Br)cc1C(=O)Nc1cccc(-c2nc3ncccc3o2)c1` was run?
A: inconclusive

Q: How did the inhibition turn out when `COc1cccc(C2CC(c3cccs3)Nc3ncnn32)c1` (stereo not drawn) was run?
A: inconclusive

Q: For `COC(=O)c1ccc2c(c1)N(Cc1nc(-c3cccc(C)c3)oc1C)C(=O)C1CCCN21` (stereo not drawn), which inhibition is on record?
A: inconclusive

Q: `Cc1cc(N2CCOCC2)nc2cc(O)ccc12` was tested. Which inhibition did it give?
A: inconclusive

Q: For `CCOC(=O)c1oc2ccc(S(=O)(=O)N3CCC(C)CC3)cc2c1C`, which inhibition is on record?
A: inconclusive

Q: `Cc1ccc(C)c(N2CCN(C(=O)CC3Sc4ccccc4NC3=O)CC2)c1` (stereo not drawn) was tested. Which inhibition did it give?
A: inconclusive

Q: How did the inhibition turn out when `CCN(CCCNC(=O)Cn1ncc2c(=O)oc3ccccc3c21)c1cccc(C)c1` was run?
A: inconclusive

Q: How did the inhibition turn out when `Cc1cc2cc(CCNC(=O)c3ccc(S(=O)(=O)N4CCOCC4)cc3)c(=O)[nH]c2cc1C` was run?
A: inconclusive

Q: For `CC(C)(O)c1cn(-c2nonc2N)nn1`, which inhibition is on record?
A: inactive: 1%

Q: `CCOC(=O)c1ccc(NC(=O)c2c(C)[nH]c(C(=O)OCC)c2C)cc1` was tested. Which inhibition did it give?
A: inconclusive

Q: With `c1ccc(-c2nc(Sc3ncnc4c3cnn4-c3ccccc3)n[nH]2)cc1` as the molecule, how does the inhibition read?
A: inconclusive

Q: With `Cn1nc(-c2ccc(Cl)cc2)c2cc(C(=O)N3CCN(c4ccccn4)CC3)sc21` as the molecule, how does the inhibition read?
A: inconclusive

Q: How did the inhibition turn out when `COc1ccc(Cn2nnc3c(=O)[nH]c(C(=O)NCCc4ccc(F)cc4)nc32)cc1OC` was run?
A: inactive: -30%

Q: How did the inhibition turn out when `O=C(c1ccc(Cl)cc1Cl)N1CCC(c2nc3c(nnn3Cc3ccco3)c(=O)[nH]2)CC1` was run?
A: inconclusive

Q: Which inhibition does the source give for `O=c1cc(N2CCc3ccccc3C2)[nH]c(=O)n1C1CCCCC1` here?
A: inactive: 4%

Q: `CCOC(=O)N1CCC(Nc2c(Nc3cccc(CC)c3)c(=O)c2=O)CC1` was tested. Which inhibition did it give?
A: inconclusive

Q: `CC(C)C(NS(=O)(=O)c1cccs1)C(=O)NCc1ccc2c(c1)OCO2` (stereo not drawn) was tested. Which inhibition did it give?
A: inactive: 20%

Q: With `CC(C)CCNC(=O)C1C2C=CC3(CN(Cc4ccccc4Cl)C(=O)C13)O2` (stereo not drawn) as the molecule, how does the inhibition read?
A: inconclusive

Q: How did the inhibition turn out when `COc1ccc(N2CCN(C(CNS(=O)(=O)c3cccs3)c3cccnc3)CC2)cc1` (stereo not drawn) was run?
A: inconclusive

Q: For `CCOC(=O)C(C)Sc1ncnc2nc[nH]c12` (stereo not drawn), which inhibition is on record?
A: inconclusive

Q: Which inhibition does the source give for `CCOC(=O)C1CCN(c2c(NCc3ccc(C(=O)NCCOC)cc3)c(=O)c2=O)CC1` here?
A: inconclusive

Q: With `CCOC(=O)Nc1c(C(=O)OC)[nH]c2cccc(OC)c12` as the molecule, how does the inhibition read?
A: inconclusive

Q: With `Cc1cccc(-n2nnc(C(=O)Nc3ccc(F)cc3)c2N)c1` as the molecule, how does the inhibition read?
A: inconclusive

Q: Which inhibition does the source give for `CCOC(=O)N1CCN(c2c(NCCCN(C)c3ccccc3)c(=O)c2=O)CC1` here?
A: inconclusive

Q: `Cc1ccc(-n2ncc3c(=O)[nH]c(SCC(=O)N4CCOCC4)nc32)cc1` was tested. Which inhibition did it give?
A: inconclusive

Q: Which inhibition does the source give for `N#Cc1cccc(NC(=O)Nc2cccs2)c1` here?
A: inconclusive

Q: Which inhibition does the source give for `O=C(c1cc2cc3ccc(Cl)cc3nc2o1)N1CCN(Cc2ccc3c(c2)OCO3)CC1` here?
A: inconclusive

Q: `CCOc1ccccc1N1CCN(c2nc3ccccc3nc2C(C#N)C(=O)OC)CC1` (stereo not drawn) was tested. Which inhibition did it give?
A: inactive: -24.5%

Q: Which inhibition does the source give for `CCCc1cc(-n2ccnc2)n2c(nc3ccccc32)c1C#N` here?
A: inconclusive

Q: For `Cc1ccc(S(=O)(=O)C2(C(=O)N3CCCC(C)C3)CC2)cc1` (stereo not drawn), which inhibition is on record?
A: inconclusive

Q: `CCOC(=O)CNc1c(-c2ccc(Cl)cc2)nc2cnccn12` was tested. Which inhibition did it give?
A: inconclusive

Q: Which inhibition does the source give for `O=C(c1ccccc1-c1ccccc1)N1CCN(c2ccccn2)CC1` here?
A: inconclusive

Q: For `CCCCCn1c(SCC#N)nc2cc(C(=O)NCC3CCCO3)ccc2c1=O` (stereo not drawn), which inhibition is on record?
A: inconclusive

Q: Which inhibition does the source give for `Cc1oc2cc3oc(=O)c4c(c3cc2c1C)CCC4` here?
A: inconclusive

Q: With `O=C(NC1CCCCC1)n1c(=O)oc2ccc(Cl)cc21` as the molecule, how does the inhibition read?
A: inconclusive

Q: `c1ccc(CN2CCN(c3nc4ccccc4n4cnnc34)CC2)cc1` was tested. Which inhibition did it give?
A: inconclusive
